No constants are given. Whether binding was seen depends on the method and setting. Some results given as binding are weak or reduced against the parent protein; the word gives no strength.
B1: SPT5L, Pol V associated factor, two-hybrid prey in pGADT7 (protein, UniProt F4JW79 1-1493)
chain: MDRKGKGKQVAGSDSYSGGQKRKNSVEFRDEGLRIKKRKNPEVLQFFEESAEVGYYGGSSDEDDDGLGFLNDMEDEPEVEESSKAGKGEKGKSSFVFPKEEDLNEEEFDRIMEERYKPGSGFLRYADDDIKDAIEMDALAPTSKDPPIWKVKCAIGRERRSVFCLMHKFVELRKIGTKLEIISVFSVDHVKGFIFIEADKEHDVLEACKSLVGIYATRMVLLPKAETPNLLTVQKKTKKVSEGTWARVKNGKYKGDLAQIVAVSDTRNKALIKLIPRIDIQALTQKYGGGVTVQKGQTPAPRLISSSELEEFRPLIQVRRDRDTGITFEHLDSLMLKDGYLYKKVSLDSISSWGVIPTKDELLKFTPVDRKETGDVEWISEIYGEERKKKILPTCREGGKGEGSGGGKGEGSGGGKGEGSRGGKGEGSSDFKSESSYELYNLVCFSRKDFGLIVGVDDKGDGYKVLKEGIDGPVVVTVGKKEMQNGPFDSKFTALDLNKKQISVNDVVKISKGPSEGKQGVVRQVYRGIIFLYDESEEENGGYFCCKSQSCEKVKLFTEESNEKTGGFDGTAFEDFVSSPKSPLSPEKEWQPRERYNSSNQGDIGSTYSIGQKLRIRVGPLKGYLCRVIALRYSDVTVKLDSQHKIFTVKSEHLAEVRDRNTVLSTSGDAGTGSFQPFGMLGTESSTGDWAIGAGTSSEGGNWNIGGPSTDSHESLNIERNMVQLCREKNPWGGSKPTSDVSPTVADDNTSAWANAAAENKPASASDQPGGWNPWGKTPASEAGTVSGWGDTSASNVEASSWEKQGASTSNVADLGSWGTHGGSSGGNKQDEDSVWGKLCEASESSQKKEESSWGKKGGSDGESSWGNKDGNSSASKKDGVSWGQQDKGSDESKGGSAWSNQCGDFGSGKKKDGSSGWNKSAEDSNANSKGVPDWGQPNDGSSWGKKGDGAASWGKKDDGGSWGKKDDGNKDDGGSSWGKKDDGQKDDGGSSWEKKFDGGSSWGKKDDGGSSWGKKDDGGSLWGKKDDGGSSWGKEDDGGSLWGKKDDGESSWGKKDDGESSWGKKDDGGSSWGKKDEGGYSEQTFDRGGRGFGGRRGGGRRGGRDQFGRGSSFGNSEDPAPWSKPSGGSSWGKQDGDGGGSSWGKENDAGGGSSWGKQDNGVGSSWGKQNDGSGGGSSWGKQNDAGGGSSWGKQDSGGDGSSWGKQDGGGDSGSAWGKQNNTSGGSSWGKQSDAGGGSSWGKQDGGGGGSSWGKQDGGGGSGSAWGKQNETSNGSSWGKQNDSGGGSSWGKQDGGGGGSSWGKQNDGGGGSSWGKQGDGGSKPWNEHSGGGRGFGERRGGGGFRGGRNQSGRGGRSFDGGRSSSWKTDNQENTWKSDQSGGSDWKKGWGEDSNNSKPSGSSAGGCAGNWPSWDTNSKKETNDKPGDDSKSAWGTSNDQVNTDNNNDSWNKKPNNDVGTSGEADNAWGGKTNAVAPSPSGSAAWGTGDKKTGW
B2: NRPE4, subunit of Pol V, two-hybrid prey in pGADT7 (protein, UniProt Q6DBA5 1-205)
chain: MSEKGGKGLKSSLKSKDGGKDGSSTKLKKGRKIHFDQRTPPANYKILNVSSDQQPFQSSAAKCGKSDKPTKSSKNSLHSFELKDLPENAECMMDCEAFQILDGIKGQLVGLSEDPSIKIPVSYDRALAYVESCVHYTNPQSVRKVLEPLKTYGISDGEMCVIANASSESVDEVLAFIPSLKTKKEVINQPLQDALEELSKLKKSE
B3: NRPE7, subunit of Pol V, two-hybrid prey in pGADT7 (protein, UniProt A6QRA1 1-178)
chain: MFLKVQLPWNVMIPAENMDAKGLMLKRAILVELLEAFASKKATKELGYYVAVTTLDKIGEGKIREHTGEVLFPVMFSGMTFKIFKGEIIHGVVHKVLKHGVFMRCGPIENVYLSYTKMPDYKYIPGENPIFMNEKTSRIQVETTVRVVVIGIKWMEVEREFQALASLEGDYLGPLSEE

By UniProt entry, the sequences of proteins in these tests, tags left out.
UniProt A8MS85: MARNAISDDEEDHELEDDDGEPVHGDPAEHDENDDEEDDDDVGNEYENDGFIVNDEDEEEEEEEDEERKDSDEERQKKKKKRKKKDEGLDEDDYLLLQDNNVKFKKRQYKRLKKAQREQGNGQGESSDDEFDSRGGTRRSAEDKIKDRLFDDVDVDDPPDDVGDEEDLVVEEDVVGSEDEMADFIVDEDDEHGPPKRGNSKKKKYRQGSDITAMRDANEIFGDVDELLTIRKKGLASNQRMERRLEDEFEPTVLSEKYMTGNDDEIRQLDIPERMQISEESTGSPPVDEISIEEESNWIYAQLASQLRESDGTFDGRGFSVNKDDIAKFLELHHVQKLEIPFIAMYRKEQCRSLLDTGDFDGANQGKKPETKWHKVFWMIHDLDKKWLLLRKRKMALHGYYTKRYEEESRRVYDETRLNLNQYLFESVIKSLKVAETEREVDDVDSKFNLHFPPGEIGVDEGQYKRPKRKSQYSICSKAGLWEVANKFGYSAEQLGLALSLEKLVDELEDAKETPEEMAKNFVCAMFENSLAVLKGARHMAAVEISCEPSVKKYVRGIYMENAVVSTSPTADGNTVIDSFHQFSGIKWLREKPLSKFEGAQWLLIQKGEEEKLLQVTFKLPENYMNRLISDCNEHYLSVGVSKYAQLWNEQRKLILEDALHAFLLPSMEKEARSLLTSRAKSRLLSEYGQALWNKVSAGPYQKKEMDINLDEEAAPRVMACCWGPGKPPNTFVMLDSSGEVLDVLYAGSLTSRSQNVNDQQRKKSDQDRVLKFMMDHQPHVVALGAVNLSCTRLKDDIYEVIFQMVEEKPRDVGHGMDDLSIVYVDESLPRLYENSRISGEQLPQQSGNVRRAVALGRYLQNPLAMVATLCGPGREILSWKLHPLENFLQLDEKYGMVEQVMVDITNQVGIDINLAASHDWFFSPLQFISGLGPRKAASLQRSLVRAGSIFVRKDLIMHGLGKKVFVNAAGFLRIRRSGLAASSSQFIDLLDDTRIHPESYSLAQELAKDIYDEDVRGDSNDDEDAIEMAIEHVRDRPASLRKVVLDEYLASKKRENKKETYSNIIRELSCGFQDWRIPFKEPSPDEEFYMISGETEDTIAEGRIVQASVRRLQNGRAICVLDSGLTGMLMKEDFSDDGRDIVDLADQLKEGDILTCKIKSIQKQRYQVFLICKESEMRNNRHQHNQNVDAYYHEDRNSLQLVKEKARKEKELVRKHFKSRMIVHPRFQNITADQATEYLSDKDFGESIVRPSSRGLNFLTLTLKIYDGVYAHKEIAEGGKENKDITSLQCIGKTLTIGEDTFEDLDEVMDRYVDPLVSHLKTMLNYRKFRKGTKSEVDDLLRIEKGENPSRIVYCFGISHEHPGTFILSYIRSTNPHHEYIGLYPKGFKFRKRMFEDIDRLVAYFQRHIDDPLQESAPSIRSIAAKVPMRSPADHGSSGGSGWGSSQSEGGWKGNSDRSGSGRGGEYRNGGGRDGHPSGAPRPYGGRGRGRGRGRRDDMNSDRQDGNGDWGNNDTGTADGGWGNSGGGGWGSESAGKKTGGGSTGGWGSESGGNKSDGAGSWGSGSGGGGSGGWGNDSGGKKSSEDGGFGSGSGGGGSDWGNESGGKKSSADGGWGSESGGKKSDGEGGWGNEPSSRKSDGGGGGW

Target: SPT6L (SPT6-like), two-hybrid bait in pGBKT7 (Arabidopsis) (UniProt A8MS85)
Test: two-hybrid

binding, binds:
B1
B2
B3

— article doi:10.1101/2024.01.09.574790
